The supplement of paper PMC10849652
This is one part of the list.

Amino acid sequences for entries named in this document (tags omitted). A change or cut given only in a name is not applied to a line headed by its entry.
UniProt P24539: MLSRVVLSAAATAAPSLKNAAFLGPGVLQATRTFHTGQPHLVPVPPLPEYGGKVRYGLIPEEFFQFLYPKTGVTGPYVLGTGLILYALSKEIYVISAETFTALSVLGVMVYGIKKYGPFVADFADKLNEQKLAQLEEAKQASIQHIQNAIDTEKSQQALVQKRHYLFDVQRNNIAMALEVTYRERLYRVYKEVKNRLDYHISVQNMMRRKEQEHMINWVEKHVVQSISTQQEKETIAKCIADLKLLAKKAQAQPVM
UniProt P21281, whole entry, looked up: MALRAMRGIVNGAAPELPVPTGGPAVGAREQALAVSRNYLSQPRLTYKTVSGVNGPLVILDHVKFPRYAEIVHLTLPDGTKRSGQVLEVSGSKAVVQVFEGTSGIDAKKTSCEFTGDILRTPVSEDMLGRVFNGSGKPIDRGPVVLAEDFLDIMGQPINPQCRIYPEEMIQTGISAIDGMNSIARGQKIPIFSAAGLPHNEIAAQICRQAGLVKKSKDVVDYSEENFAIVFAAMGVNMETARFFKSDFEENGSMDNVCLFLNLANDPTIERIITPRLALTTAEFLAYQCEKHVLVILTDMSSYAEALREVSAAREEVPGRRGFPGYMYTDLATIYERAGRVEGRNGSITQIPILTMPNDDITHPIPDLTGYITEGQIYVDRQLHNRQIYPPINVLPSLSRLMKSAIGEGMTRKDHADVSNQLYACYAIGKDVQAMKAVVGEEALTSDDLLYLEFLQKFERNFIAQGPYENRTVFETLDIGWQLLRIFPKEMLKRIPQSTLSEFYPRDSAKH
UniProt Q9UBB4: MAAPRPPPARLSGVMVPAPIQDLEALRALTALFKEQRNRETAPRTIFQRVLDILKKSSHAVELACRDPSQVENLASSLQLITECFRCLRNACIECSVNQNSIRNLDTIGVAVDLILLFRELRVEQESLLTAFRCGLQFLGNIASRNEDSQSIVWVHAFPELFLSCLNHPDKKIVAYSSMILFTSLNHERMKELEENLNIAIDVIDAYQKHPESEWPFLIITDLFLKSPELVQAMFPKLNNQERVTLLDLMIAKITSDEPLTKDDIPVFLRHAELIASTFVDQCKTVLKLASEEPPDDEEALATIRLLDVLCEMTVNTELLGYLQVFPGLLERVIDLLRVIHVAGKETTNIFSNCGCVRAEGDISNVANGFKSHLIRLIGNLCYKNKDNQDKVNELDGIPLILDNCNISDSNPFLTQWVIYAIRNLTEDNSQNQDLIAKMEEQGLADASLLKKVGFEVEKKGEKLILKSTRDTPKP
UniProt Q6DD88: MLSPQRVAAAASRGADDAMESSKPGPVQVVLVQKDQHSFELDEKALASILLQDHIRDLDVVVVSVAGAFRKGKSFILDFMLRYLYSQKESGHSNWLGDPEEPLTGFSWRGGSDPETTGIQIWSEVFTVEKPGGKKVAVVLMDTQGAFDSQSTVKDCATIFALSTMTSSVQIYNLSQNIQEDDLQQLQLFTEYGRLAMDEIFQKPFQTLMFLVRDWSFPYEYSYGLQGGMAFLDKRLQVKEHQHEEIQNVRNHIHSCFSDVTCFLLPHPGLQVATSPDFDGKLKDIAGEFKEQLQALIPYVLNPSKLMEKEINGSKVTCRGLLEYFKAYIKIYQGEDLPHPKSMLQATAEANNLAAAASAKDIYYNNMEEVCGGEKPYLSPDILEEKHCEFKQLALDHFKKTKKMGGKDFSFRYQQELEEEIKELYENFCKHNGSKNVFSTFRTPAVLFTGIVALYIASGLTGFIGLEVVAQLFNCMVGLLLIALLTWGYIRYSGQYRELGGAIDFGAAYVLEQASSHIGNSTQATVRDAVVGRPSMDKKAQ
UniProt P56381: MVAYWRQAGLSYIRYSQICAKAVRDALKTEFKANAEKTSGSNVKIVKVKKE
UniProt Q93084: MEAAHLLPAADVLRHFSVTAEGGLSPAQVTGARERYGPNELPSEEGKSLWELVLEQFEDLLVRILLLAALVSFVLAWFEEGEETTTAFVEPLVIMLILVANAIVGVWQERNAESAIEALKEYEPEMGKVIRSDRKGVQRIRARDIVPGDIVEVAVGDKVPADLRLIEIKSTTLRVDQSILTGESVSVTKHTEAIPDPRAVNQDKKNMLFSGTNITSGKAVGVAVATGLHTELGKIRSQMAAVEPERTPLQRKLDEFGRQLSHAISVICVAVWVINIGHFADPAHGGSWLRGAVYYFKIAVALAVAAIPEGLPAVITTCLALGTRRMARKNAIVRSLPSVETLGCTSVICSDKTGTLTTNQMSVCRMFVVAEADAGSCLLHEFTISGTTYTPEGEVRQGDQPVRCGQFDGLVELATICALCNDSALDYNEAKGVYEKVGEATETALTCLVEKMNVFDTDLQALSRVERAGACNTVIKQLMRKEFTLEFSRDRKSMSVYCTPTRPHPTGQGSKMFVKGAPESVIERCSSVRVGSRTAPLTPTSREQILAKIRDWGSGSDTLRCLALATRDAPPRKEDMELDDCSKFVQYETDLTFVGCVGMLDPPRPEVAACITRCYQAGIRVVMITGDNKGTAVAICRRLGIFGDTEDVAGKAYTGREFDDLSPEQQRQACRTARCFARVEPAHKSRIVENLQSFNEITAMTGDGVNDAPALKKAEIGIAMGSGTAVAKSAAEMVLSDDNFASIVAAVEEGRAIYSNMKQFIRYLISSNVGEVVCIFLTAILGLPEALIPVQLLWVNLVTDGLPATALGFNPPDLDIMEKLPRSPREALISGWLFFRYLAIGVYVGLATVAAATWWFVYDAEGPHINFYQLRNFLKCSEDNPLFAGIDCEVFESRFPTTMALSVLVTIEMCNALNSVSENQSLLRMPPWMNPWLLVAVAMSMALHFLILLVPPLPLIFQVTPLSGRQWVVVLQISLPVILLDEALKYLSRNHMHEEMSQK
UniProt P54709, whole entry, looked up: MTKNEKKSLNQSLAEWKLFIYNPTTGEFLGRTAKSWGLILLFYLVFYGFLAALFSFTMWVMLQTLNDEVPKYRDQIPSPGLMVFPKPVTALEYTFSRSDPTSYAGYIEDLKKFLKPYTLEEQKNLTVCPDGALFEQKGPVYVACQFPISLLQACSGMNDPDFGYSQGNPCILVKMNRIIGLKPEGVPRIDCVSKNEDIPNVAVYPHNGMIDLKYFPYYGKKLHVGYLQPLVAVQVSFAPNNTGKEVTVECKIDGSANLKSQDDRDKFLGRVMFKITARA
UniProt P36542: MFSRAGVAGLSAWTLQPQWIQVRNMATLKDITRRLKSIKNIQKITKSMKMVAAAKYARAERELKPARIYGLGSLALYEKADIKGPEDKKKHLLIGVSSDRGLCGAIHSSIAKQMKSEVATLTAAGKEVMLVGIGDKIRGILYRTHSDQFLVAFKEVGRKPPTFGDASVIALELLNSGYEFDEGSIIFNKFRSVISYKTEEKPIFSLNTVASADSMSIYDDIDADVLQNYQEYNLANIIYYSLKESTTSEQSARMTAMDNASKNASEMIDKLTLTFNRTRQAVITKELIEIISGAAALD
UniProt P54259: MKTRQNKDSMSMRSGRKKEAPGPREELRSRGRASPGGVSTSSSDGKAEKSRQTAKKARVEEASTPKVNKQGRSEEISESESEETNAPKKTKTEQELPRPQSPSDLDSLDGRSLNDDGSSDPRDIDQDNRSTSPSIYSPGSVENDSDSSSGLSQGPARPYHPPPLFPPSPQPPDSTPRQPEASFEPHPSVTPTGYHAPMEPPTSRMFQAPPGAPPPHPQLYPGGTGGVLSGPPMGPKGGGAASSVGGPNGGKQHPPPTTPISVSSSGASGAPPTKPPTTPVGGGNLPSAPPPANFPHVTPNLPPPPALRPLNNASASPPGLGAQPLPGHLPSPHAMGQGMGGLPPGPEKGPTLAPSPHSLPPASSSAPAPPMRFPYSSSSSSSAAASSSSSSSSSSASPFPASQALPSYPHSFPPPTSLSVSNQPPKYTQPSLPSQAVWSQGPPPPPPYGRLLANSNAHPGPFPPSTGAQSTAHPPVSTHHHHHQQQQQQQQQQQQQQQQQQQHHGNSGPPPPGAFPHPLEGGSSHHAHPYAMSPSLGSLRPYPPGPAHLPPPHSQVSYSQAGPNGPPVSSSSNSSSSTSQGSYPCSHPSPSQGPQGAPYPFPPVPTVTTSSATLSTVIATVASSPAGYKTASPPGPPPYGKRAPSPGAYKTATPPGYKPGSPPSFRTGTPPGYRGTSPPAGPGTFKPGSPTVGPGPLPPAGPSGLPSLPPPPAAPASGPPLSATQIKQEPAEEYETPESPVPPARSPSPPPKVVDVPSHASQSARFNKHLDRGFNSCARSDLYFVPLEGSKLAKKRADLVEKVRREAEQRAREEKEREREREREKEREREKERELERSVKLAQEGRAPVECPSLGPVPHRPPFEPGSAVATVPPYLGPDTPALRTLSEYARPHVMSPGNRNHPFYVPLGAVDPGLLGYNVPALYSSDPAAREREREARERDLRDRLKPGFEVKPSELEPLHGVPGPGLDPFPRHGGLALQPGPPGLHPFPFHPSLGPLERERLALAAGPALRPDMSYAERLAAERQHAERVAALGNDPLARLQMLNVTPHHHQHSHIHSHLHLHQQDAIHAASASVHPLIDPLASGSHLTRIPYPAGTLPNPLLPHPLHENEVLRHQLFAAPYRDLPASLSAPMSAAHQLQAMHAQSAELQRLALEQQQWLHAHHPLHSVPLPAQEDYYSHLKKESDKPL
UniProt O75143: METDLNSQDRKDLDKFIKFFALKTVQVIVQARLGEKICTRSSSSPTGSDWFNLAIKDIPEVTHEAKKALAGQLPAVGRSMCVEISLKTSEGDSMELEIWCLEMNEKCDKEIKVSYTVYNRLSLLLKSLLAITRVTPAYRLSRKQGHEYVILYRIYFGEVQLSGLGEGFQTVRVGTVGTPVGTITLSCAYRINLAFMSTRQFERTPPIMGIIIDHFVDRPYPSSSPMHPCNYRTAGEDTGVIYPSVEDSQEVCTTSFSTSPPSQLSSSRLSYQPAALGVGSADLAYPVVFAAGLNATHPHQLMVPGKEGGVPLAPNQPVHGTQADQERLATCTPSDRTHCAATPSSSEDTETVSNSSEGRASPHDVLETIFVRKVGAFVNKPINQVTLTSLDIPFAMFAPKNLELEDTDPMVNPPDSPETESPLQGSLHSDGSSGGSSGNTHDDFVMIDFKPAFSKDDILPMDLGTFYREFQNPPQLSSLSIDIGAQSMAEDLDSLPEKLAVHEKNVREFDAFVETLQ
UniProt Q8N9N2: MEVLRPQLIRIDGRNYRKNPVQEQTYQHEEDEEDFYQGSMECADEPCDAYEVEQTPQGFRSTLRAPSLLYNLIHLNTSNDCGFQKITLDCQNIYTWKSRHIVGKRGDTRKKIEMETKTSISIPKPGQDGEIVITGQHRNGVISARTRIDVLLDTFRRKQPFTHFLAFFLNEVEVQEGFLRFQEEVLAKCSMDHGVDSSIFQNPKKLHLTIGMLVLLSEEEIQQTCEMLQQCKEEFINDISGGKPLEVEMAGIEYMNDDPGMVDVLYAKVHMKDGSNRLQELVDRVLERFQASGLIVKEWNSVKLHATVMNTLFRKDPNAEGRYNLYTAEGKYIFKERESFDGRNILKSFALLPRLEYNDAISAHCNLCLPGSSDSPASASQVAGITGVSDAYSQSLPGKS
UniProt Q9Y487, whole entry, looked up: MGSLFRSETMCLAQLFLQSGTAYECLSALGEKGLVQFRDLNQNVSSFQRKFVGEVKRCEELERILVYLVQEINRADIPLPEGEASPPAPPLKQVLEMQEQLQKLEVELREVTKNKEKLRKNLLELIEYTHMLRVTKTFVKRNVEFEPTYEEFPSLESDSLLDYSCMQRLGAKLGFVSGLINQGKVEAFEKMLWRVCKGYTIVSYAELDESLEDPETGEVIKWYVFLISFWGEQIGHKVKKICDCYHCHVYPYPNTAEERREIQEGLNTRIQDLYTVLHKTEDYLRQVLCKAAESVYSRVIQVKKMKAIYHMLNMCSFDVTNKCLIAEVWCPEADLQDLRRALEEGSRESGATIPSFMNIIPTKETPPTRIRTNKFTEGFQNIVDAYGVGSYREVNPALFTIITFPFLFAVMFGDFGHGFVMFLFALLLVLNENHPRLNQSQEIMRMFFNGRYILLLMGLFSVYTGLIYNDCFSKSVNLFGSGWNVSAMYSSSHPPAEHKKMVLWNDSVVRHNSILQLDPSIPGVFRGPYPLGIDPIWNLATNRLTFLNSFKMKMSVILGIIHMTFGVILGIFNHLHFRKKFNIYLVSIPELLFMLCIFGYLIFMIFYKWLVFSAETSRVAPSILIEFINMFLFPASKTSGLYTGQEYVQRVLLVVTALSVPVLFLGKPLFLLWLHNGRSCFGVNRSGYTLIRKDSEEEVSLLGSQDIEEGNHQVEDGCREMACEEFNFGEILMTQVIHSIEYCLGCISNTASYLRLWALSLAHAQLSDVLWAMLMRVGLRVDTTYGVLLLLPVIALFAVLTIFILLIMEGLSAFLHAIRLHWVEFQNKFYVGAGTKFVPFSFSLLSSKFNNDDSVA

Key:
Test in all cases: log2 fold change, soluble protein after heating vs DMSO (PISA); higher = thermal stabilisation; K562 lysate, 10 uM; active = over 0.2 and 3.5 SD of the protein, either way, in both replicates (recomputed)
vemurafenib = compound: CCCS(=O)(=O)Nc1ccc(F)c(C(=O)c2c[nH]c3ncc(-c4ccc(Cl)cc4)cc23)c1F [vemurafenib]
Outline: (§1)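 Dounce homogenisation of K562 pellets in PBS pH 7.4 with 1 mM MgCl2 produced a crude extract, used at 1 mg/mL protein. Exposure to 10 μM compound lasted 30 min, and aliquots were then heated for 3 min across 48°C-58°C, pooled and brought to 0.5% NP-40 at 4°C. The supernatant after 21,000xg for 90 min was quantified by TMTpro 16plex LC-MS/MS with channel sums equalised. Duplicate values are given as log-two fold change in thermal stability relative to solvent controls.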

[1] = compound: CCCS(=O)(=O)Nc1ccc(F)c(C(=O)c2c[nH]c3ncc(Cl)cc23)c1F
Outline: as §1

barasertib = compound: CCN(CCCOc1ccc2c(Nc3cc(CC(=O)Nc4cccc(F)c4)[nH]n3)ncnc2c1)CCOP(=O)(O)O [barasertib]
Outline: as §1

[2] = compound: CC[C@@H]1C(=O)N(C)c2cnc(Nc3ccc(C(=O)NC4CCN(C)CC4)cc3OC)nc2N1C1CCCC1
Outline: as §1

volasertib = compound: CC[C@@H]1C(=O)N(C)c2cnc(Nc3ccc(C(=O)N[C@H]4CC[C@H](N5CCN(CC6CC6)CC5)CC4)cc3OC)nc2N1C(C)C [volasertib]
Outline: as §1

[3] = compound: CCn1c(C(=O)N(C2CC2)C2CC2)cc2c3c(ncn3C)c(Nc3cc(C)n(C)n3)nc21
Outline: as §1

[4] = compound: CCn1cc(-c2ccnc3[nH]c(-c4cccc(CN(C)C)c4)cc23)c(-c2ccc(NC(=O)N(C)C)cc2)n1
Outline: as §1

[5] = compound: CN1CCC(CNc2ccc3ncc(-c4cccc(OC(F)(F)F)c4)n3n2)CC1
Outline: as §1

saracatinib = compound: CN1CCN(CCOc2cc(OC3CCOCC3)c3c(Nc4c(Cl)ccc5c4OCO5)ncnc3c2)CC1 [saracatinib]
Outline: as §1

sotrastaurin = compound: CN1CCN(c2nc(C3=C(c4c[nH]c5ccccc45)C(=O)NC3=O)c3ccccc3n2)CC1 [sotrastaurin]
Outline: as §1

alvocidib = compound: CN1CC[C@H](c2c(O)cc(O)c3c(=O)cc(-c4ccccc4Cl)oc23)[C@H](O)C1 [alvocidib]
Outline: as §1

Tubastatin A = compound: CN1CCc2c(c3ccccc3n2Cc2ccc(C(=O)NO)cc2)C1 [Tubastatin A]
Outline: as §1

[6] = compound: CNC(=O)C1=CC=CC=C1NC2=NC(=NC=C2Cl)NC3=C(C=C(C=C3)N4CCOCC4)OC
Outline: as §1

defactinib = compound: CNC(=O)c1ccc(Nc2ncc(C(F)(F)F)c(NCc3nccnc3N(C)S(C)(=O)=O)n2)cc1 [defactinib]
Outline: as §1

[7] = compound: CNc1nc(-c2ccc3c(N)n[nH]c3c2)cc(N2C[C@@H](C(=O)NC3CCCCC3)CC[C@H]2C)n1
Outline: as §1

encorafenib = compound: COC(=O)N[C@@H](C)CNc1nccc(-c2cn(C(C)C)nc2-c2cc(Cl)cc(NS(C)(=O)=O)c2F)n1 [encorafenib]
Outline: as §1

[8] = compound: COC(=O)[C@H](CCSC)NC(=O)C1=C(C=C(C=C1)NC[C@H](CS)N)C2=CC=CC=C2
Outline: as §1

alisertib = compound: COc1cc(Nc2ncc3c(n2)-c2ccc(Cl)cc2C(c2c(F)cccc2OC)=NC3)ccc1C(=O)O [alisertib]
Outline: as §1

[9] = compound: COc1cc2nc(-c3cc(F)ccc3O)nc(N[C@@H]3CNC[C@H]3C(C)(C)O)c2cc1OC
Outline: as §1

gefitinib = compound: COc1cc2ncnc(Nc3ccc(F)c(Cl)c3)c2cc1OCCCN1CCOCC1 [gefitinib]
Outline: as §1

Measured: log2 fold change

ATP6V1B1 (UniProt P15313)
active: [4] -0.288
inactive: vemurafenib -0.009 | [1] -0.013 | barasertib -0.012 | [2] 0.016 | volasertib 0.03 | [3] 0.006 | [5] 0.158 | saracatinib -0.006 | sotrastaurin 0.006 | alvocidib -0.118 | Tubastatin A 0.095 | [6] 0.018 | defactinib -0.005 | [7] 0.031 | encorafenib -0.032 | [8] 0.017 | alisertib 0.023 | [9] 0.009 | gefitinib -0.033

ATP5PB (UniProt P24539)
inactive: vemurafenib 0.012 | [1] -0.013 | barasertib 0.035 | [2] 0.022 | volasertib 0.025 | [3] 0 | [4] 0.057 | [5] -0.018 | saracatinib 0.007 | sotrastaurin -0.05 | alvocidib 0 | Tubastatin A 0.045 | [6] 0 | defactinib 0.014 | [7] 0.007 | encorafenib -0.007 | [8] -0.067 | alisertib -0.002 | [9] -0.012 | gefitinib 0.014

ATP6V1B2 (UniProt P21281)
inactive: vemurafenib 0.018 | [1] -0.009 | barasertib -0.042 | [2] 0.02 | volasertib 0.005 | [3] -0.037 | [4] -0.066 | [5] 0.079 | saracatinib 0.004 | sotrastaurin -0.006 | alvocidib -0.048 | Tubastatin A 0.045 | [6] -0.008 | defactinib 0.003 | [7] -0.012 | encorafenib -0.019 | [8] -0.033 | alisertib -0.038 | [9] -0.002 | gefitinib -0.009

ATXN10 (UniProt Q9UBB4)
inactive: vemurafenib 0.002 | [1] 0.004 | barasertib -0.017 | [2] 0 | volasertib -0.018 | [3] -0.017 | [4] 0.055 | [5] -0.028 | saracatinib -0.009 | sotrastaurin 0.003 | alvocidib 0.03 | Tubastatin A -0.001 | [6] -0.002 | defactinib -0.005 | [7] -0.009 | encorafenib 0.027 | [8] -0.031 | alisertib 0.013 | [9] -0.006 | gefitinib -0.017

ATL3 (UniProt Q6DD88)
inactive: vemurafenib 0.046 | [1] -0.022 | barasertib 0.022 | [2] 0.014 | volasertib -0.041 | [3] -0.004 | [4] 0.055 | [5] -0.044 | saracatinib -0.044 | sotrastaurin 0.008 | alvocidib 0.016 | Tubastatin A 0.042 | [6] -0.007 | defactinib 0.011 | [7] -0.046 | encorafenib 0.001 | [8] -0.021 | alisertib -0.03 | [9] 0.184 | gefitinib -0.039

ATP5F1E (UniProt P56381)
inactive: vemurafenib -0.032 | [1] -0.011 | barasertib -0.004 | [2] 0.064 | volasertib 0.015 | [3] 0.06 | [4] 0.013 | [5] -0.022 | saracatinib -0.069 | sotrastaurin -0.014 | alvocidib -0.019 | Tubastatin A 0.042 | [6] -0.005 | defactinib 0.005 | [7] 0.019 | encorafenib 0.022 | [8] -0.127 | alisertib -0.069 | [9] 0.004 | gefitinib 0.005

ATP2A3 isoform 2 (UniProt Q93084)
inactive: vemurafenib 0.013 | [1] 0.012 | barasertib 0.028 | [2] -0.039 | volasertib -0.06 | [3] -0.016 | [4] 0.02 | [5] -0.173 | saracatinib -0.035 | sotrastaurin 0.028 | alvocidib 0.081 | Tubastatin A 0.038 | [6] -0.018 | defactinib -0.016 | [7] -0.01 | encorafenib -0.043 | [8] 0.241 | alisertib -0.017 | [9] 0.022 | gefitinib -0.044

ATP1B3 (UniProt P54709)
inactive: vemurafenib -0.014 | [1] -0.031 | barasertib -0.033 | [2] 0.027 | volasertib 0.024 | [3] -0.022 | [4] -0.067 | [5] 0.038 | saracatinib -0.005 | sotrastaurin -0.002 | alvocidib -0.013 | Tubastatin A 0.01 | [6] -0.004 | defactinib 0.002 | [7] -0.001 | encorafenib -0.007 | [8] -0.068 | alisertib -0.01 | [9] -0.01 | gefitinib -0.015

ATP6V1A (UniProt P38606)
inactive: vemurafenib -0.029 | [1] -0.001 | barasertib -0.019 | [2] 0.016 | volasertib 0.009 | [3] -0.003 | [4] -0.007 | [5] 0.03 | saracatinib 0.01 | sotrastaurin 0.007 | alvocidib -0.005 | Tubastatin A 0.077 | [6] 0.003 | defactinib -0.006 | [7] -0.042 | encorafenib -0.036 | [8] 0.024 | alisertib 0.019 | [9] 0.001 | gefitinib -0.018

ATP6V1H (UniProt Q9UI12)
inactive: vemurafenib 0.003 | [1] -0.015 | barasertib -0.028 | [2] 0.02 | volasertib -0.001 | [3] 0.017 | [4] -0.075 | [5] 0.017 | saracatinib -0.001 | sotrastaurin 0.016 | alvocidib -0.019 | Tubastatin A 0.007 | [6] -0.009 | defactinib -0.024 | [7] 0.02 | encorafenib 0.005 | [8] -0.021 | alisertib -0.021 | [9] 0.028 | gefitinib 0.013

ATP5F1C (UniProt P36542)
inactive: vemurafenib -0.019 | [1] 0.003 | barasertib -0.027 | [2] 0.029 | volasertib 0.013 | [3] -0.009 | [4] -0.01 | [5] -0.013 | saracatinib -0.003 | sotrastaurin 0.027 | alvocidib 0.012 | Tubastatin A 0.012 | [6] -0.038 | defactinib -0.02 | [7] -0.004 | encorafenib 0.009 | [8] -0.039 | alisertib -0.006 | [9] 0.011 | gefitinib 0.031

Quoted from the listing (3 entries):
ATP6V1A (UniProt P38606)
inactive: vemurafenib -0.029 | [1] -0.001 | barasertib -0.019 | [2] 0.016 | volasertib 0.009 | [3] -0.003 | [4] -0.007 | [5] 0.03 | saracatinib 0.01 | sotrastaurin 0.007 | alvocidib -0.005 | Tubastatin A 0.077 | [6] 0.003 | defactinib -0.006 | [7] -0.042 | encorafenib -0.036 | [8] 0.024 | alisertib 0.019 | [9] 0.001 | gefitinib -0.018

ATP6V1H (UniProt Q9UI12)
inactive: vemurafenib 0.003 | [1] -0.015 | barasertib -0.028 | [2] 0.02 | volasertib -0.001 | [3] 0.017 | [4] -0.075 | [5] 0.017 | saracatinib -0.001 | sotrastaurin 0.016 | alvocidib -0.019 | Tubastatin A 0.007 | [6] -0.009 | defactinib -0.024 | [7] 0.02 | encorafenib 0.005 | [8] -0.021 | alisertib -0.021 | [9] 0.028 | gefitinib 0.013

ATP5F1C (UniProt P36542)
inactive: vemurafenib -0.019 | [1] 0.003 | barasertib -0.027 | [2] 0.029 | volasertib 0.013 | [3] -0.009 | [4] -0.01 | [5] -0.013 | saracatinib -0.003 | sotrastaurin 0.027 | alvocidib 0.012 | Tubastatin A 0.012 | [6] -0.038 | defactinib -0.02 | [7] -0.004 | encorafenib 0.009 | [8] -0.039 | alisertib -0.006 | [9] 0.011 | gefitinib 0.031

Following part:

ATN1 (UniProt P54259)
inactive: vemurafenib 0.006 | [1] -0.063 | barasertib 0.072 | [2] 0.105 | volasertib -0.053 | [3] -0.043 | [4] -0.039 | [5] 0.091 | saracatinib -0.004 | sotrastaurin 0.008 | alvocidib -0.039 | Tubastatin A 0.037 | [6] -0.075 | defactinib -0.024 | [7] 0.059 | encorafenib -0.005 | [8] 0.02 | alisertib -0.059 | [9] 0.042 | gefitinib 0.078

ATR (UniProt Q13535)
inactive: vemurafenib 0.059 | [1] 0.013 | barasertib 0 | [2] 0.017 | volasertib -0.13 | [3] 0.018 | [4] -0.307 | [5] 0.337 | saracatinib 0.018 | sotrastaurin 0.081 | alvocidib -0.134 | Tubastatin A -0.067 | [6] 0.029 | defactinib -0.07 | [7] -0.001 | encorafenib 0.045 | [8] -0.193 | alisertib 0.115 | [9] 0.077 | gefitinib 0.052

ATG13 isoform 2 (UniProt O75143)
inactive: vemurafenib -0.05 | [1] 0.042 | barasertib 0.024 | [2] 0.036 | volasertib 0.007 | [3] 0.015 | [5] 0.077 | saracatinib 0.005 | sotrastaurin 0.053 | alvocidib -0.106 | Tubastatin A -0.035 | [6] 0.013 | defactinib 0.03 | [7] 0.026 | encorafenib 0.054 | [8] -0.045 | alisertib 0.038 | [9] 0.017 | gefitinib -0.013
active: [4] -0.281

ASCC1 isoform 2 (UniProt Q8N9N2)
inactive: vemurafenib 0.046 | [1] -0.003 | barasertib 0.04 | [2] -0.056 | volasertib -0.033 | [3] 0.013 | [4] -0.087 | [5] 0.017 | saracatinib 0.024 | sotrastaurin 0.068 | alvocidib -0.006 | Tubastatin A -0.049 | [6] -0.008 | defactinib 0 | [7] -0.087 | encorafenib -0.014 | [8] 0.05 | alisertib 0.006 | [9] 0 | gefitinib -0.012

ATP6V0A2 (UniProt Q9Y487)
inactive: vemurafenib -0.035 | [1] 0.013 | barasertib 0.037 | [2] 0.071 | volasertib 0.005 | [3] 0.017 | [4] -0.117 | [5] 0.14 | saracatinib -0.007 | sotrastaurin 0.029 | alvocidib -0.129 | Tubastatin A 0.091 | [6] 0.022 | defactinib 0.008 | [7] 0.001 | encorafenib 0.03 | [8] -0.027 | alisertib 0.015 | [9] 0.048 | gefitinib 0.036
